Laboratory results from paper PMC7906790.
Results are given in words; binding and its absence hold for the method and conditions named. In cells and extracts the contact can be indirect. Binding calls can cover weak binding; strength is not graded here. Sequences can lack the tags named with a protein.

Amino acid sequences for entries named in this document (tags omitted). A change or cut given only in a name is not applied to a line headed by its entry.
UniProt P23321: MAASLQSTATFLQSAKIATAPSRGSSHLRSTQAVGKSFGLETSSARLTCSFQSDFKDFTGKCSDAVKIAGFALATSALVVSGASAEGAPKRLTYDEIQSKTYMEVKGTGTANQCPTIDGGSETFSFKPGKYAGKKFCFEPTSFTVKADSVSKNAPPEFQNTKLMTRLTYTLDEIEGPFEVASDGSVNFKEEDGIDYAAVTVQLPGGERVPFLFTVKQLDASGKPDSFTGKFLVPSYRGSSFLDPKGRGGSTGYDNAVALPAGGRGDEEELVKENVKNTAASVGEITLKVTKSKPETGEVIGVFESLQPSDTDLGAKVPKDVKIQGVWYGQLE

Legend:
[1] = target: T1, SecY1–YFP^N (Myc tagged) (Arabidopsis thaliana) (UniProt Q38885); test: co-IP; intact tobacco chloroplasts after co-infiltration, solubilised with an equal volume of buffer with 2% digitonin (100 mM Tris-HCl pH 7.5, 300 mM NaCl); anti-Myc antibody and protein A-agarose hold Myc-tagged SecY1–nYFP; immunoblot; wild-type leaves as control
T1 sequence: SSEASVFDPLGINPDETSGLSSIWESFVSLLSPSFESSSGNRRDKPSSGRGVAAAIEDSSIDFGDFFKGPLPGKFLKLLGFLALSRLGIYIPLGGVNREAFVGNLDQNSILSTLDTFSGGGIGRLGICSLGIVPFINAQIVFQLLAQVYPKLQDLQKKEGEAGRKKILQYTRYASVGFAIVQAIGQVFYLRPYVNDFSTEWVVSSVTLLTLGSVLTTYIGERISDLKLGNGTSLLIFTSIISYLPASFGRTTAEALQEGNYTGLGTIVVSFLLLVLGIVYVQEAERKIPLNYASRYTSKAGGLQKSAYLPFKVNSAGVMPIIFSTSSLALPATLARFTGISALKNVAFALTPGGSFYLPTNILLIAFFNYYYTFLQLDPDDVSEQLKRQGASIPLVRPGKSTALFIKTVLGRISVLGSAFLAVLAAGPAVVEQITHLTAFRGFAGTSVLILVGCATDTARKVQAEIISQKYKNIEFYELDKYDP

[2] = target: T2, SecY1–YFP^C (Arabidopsis thaliana) (UniProt Q38885); test: split reporter; split YFP (nYFP/cYFP at the C-termini), transient co-expression in N. benthamiana leaf mesophyll chloroplasts, confocal microscopy 48 h after infiltration; also with 10 mM sodium azide or 30 uM geldanamycin
T2 sequence: T1 sequence

[3] = target: T3, HSP90C–YFP^C (Arabidopsis thaliana) (UniProt Q9SIF2); test: as above
T3 sequence: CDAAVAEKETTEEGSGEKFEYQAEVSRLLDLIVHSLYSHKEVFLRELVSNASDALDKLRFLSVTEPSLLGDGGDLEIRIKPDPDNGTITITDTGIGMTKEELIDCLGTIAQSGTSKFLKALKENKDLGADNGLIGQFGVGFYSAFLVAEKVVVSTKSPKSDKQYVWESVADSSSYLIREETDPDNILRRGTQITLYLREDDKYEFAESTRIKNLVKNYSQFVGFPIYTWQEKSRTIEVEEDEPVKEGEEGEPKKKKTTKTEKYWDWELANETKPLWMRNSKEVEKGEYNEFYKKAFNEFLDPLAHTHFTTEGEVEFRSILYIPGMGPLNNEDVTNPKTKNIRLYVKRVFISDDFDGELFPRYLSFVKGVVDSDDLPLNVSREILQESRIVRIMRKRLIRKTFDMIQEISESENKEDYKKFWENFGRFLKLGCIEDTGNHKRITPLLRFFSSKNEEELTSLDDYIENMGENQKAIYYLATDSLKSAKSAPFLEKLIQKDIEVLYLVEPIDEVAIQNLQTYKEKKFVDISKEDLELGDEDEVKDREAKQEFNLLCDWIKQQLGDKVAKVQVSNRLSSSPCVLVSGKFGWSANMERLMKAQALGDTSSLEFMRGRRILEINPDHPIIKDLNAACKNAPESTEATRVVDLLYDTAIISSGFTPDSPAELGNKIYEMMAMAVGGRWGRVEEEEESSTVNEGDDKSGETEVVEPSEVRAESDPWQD

Row | Substance | binding [1] | binding [2] | binding [3]
1 | endogenous tobacco HSP90C (N. benthamiana (endogenous in leaves)) | binds | – | –
2 | PsbO1–YFP^N (from UniProt P23321) | – | binds | binds
